Results are given in words; binding and its absence hold for the method and conditions named. For some assays here: Binding can be weak; no strength is given. Sequences can lack the tags named with a protein. For some assays here: Binding seen in cells or lysates may run through a third protein.
Experiments:
[1] = target: VAND ROP5A, yeast two-hybrid fusion (Toxoplasma gondii, strain VAND); assay: two-hybrid; S. cerevisiae PJ69-4α, Gal4 AD (pGAD-C3) and BD (pGBD-C3) fusions; growth on triple dropout medium (SD/-Leu/-Trp/-His) with 1 mM 3-AT, 5 to 10 days at 30 °C
[2] = target: VAND ROP5B1, yeast two-hybrid fusion (Toxoplasma gondii, strain VAND); assay: as above
[3] = target: VAND ROP5B2, yeast two-hybrid fusion (Toxoplasma gondii, strain VAND); assay: as above
[4] = target: VAND ROP5B3, yeast two-hybrid fusion (Toxoplasma gondii, strain VAND); assay: as above
[5] = target: ROP5C (T. gondii RH), β-lactamase fragment fusion (PCA) (Toxoplasma gondii, strain RH); assay: split reporter; protein-fragment complementation assay with split TEM-1 β-lactamase (BlaN/BlaC) in co-transfected HEK293T cells; nitrocefin hydrolysis rate in lysates
[6] = target: ROP5A (T. gondii RH), yeast two-hybrid fusion (Toxoplasma gondii, strain RH); assay: two-hybrid; S. cerevisiae PJ69-4α, Gal4 AD (pGAD-C3) and BD (pGBD-C3) fusions; growth on triple dropout medium (SD/-Leu/-Trp/-His) with 1 mM 3-AT, 5 to 10 days at 30 °C
[7] = target: ROP5C (T. gondii RH), yeast two-hybrid fusion (Toxoplasma gondii, strain RH); assay: as above

B1: VAND GRA7, yeast two-hybrid fusion (protein, UniProt O00933 1-236)
chain: MARHAIFSALCVLGLVAAALPQFATAATASDDELMSRIRNSDFFDGQAPVDSLRPTNAGVDSKGTDDHLTTSMDKASVESQLPRREPLETEPDEQEEVHFRKRGVRSDAEVTDDNIYEEHTDRKVVPRKSEGKRSFKDLLKKLALPAVGMGASYFAADRLVPELTEEQQRGDEPLTTGQNVGTVLGFAALAAAAAFLGMGLTRTYRHFSPRKNRSRQPALEQEVPESGEDGEDARQ
binding [1]: no binding
binding [2]: no binding
binding [3]: no binding
binding [4]: no binding

B2: Irgb2-b1CIM, β-lactamase fragment fusion (PCA) (protein, UniProt U5NGE1 1-835)
chain: MGQTSSSTSPPKEDPPLTFQVKTKVLSQELIASIESSLENGNLQETVSAISSALGDIEKAPLNIAVMGETGAGKSSLINALQGVGDDEEGAAASTGIIHTTTERTPYTYTKFPSVTLWDLPGIGSTAFQPHDYLKKIEFEEYDFFIIVSAIRIKQSDIELAKAIVQMNRGLYFVKTKTDSDLVNEKRCNPMRFNRENTLKSIRICLSSNLKERFQQEPPVFLVSNFDVSDFDFPKLESTLLSQLPAYKHQIFMSTLQVVINAIVDRKRDMLKQKIWKESIMPRAWATIPSRGLTQKDMEMLQQTLNDYRSSFGLDEASLENIAEDLNVTLEELKANIKSPHLLSDEPDTSLTEKLLKYIGNPYFSKVFHLQNYFIDTVASDVKIILSKEELFTEQHPPLNTTTCQTSTGRTSQITAQLLEFNFKNFFKNFKKESKILSEETITLIESHLENKNLKEALTVISHALRNIDKAPLNIAVTGETGTGKSSFINALRGISSEEKDAAPTGVIETTMKRTPYPHPKLPNVTIWDLPGIGSTNFPPQNYLTEMKFGEYDFFIIISATRFKEIDAHLAKAIAKMNTKFYFVRTKIDQDVSNEQRSKPRSFNRDSVLKKIKDECLGLLQKVLSSQPPIFLVSNFDVSDFDFPKLETTLLRELPAHKRHLFMMSLHSVTETTIARKRDFLRQKIWLEALKAGVWATIPLGGLVRDKMQKLEETLNLYRSYFGLDEASLENIAKDFNVSVNEIKAHLRSLQLLTKNNDMSFKEKLLKYIEYISCVTGGPLASGLYFRKTYYWQSLFIDTVASDAKSLLNKEEFLSEKPGSCLSDLPEYWETGMEL
binding [5]: binds

B3: Irgb2-b1CIM, yeast two-hybrid fusion (protein, UniProt U5NGE1 1-835)
chain: MGQTSSSTSPPKEDPPLTFQVKTKVLSQELIASIESSLENGNLQETVSAISSALGDIEKAPLNIAVMGETGAGKSSLINALQGVGDDEEGAAASTGIIHTTTERTPYTYTKFPSVTLWDLPGIGSTAFQPHDYLKKIEFEEYDFFIIVSAIRIKQSDIELAKAIVQMNRGLYFVKTKTDSDLVNEKRCNPMRFNRENTLKSIRICLSSNLKERFQQEPPVFLVSNFDVSDFDFPKLESTLLSQLPAYKHQIFMSTLQVVINAIVDRKRDMLKQKIWKESIMPRAWATIPSRGLTQKDMEMLQQTLNDYRSSFGLDEASLENIAEDLNVTLEELKANIKSPHLLSDEPDTSLTEKLLKYIGNPYFSKVFHLQNYFIDTVASDVKIILSKEELFTEQHPPLNTTTCQTSTGRTSQITAQLLEFNFKNFFKNFKKESKILSEETITLIESHLENKNLKEALTVISHALRNIDKAPLNIAVTGETGTGKSSFINALRGISSEEKDAAPTGVIETTMKRTPYPHPKLPNVTIWDLPGIGSTNFPPQNYLTEMKFGEYDFFIIISATRFKEIDAHLAKAIAKMNTKFYFVRTKIDQDVSNEQRSKPRSFNRDSVLKKIKDECLGLLQKVLSSQPPIFLVSNFDVSDFDFPKLETTLLRELPAHKRHLFMMSLHSVTETTIARKRDFLRQKIWLEALKAGVWATIPLGGLVRDKMQKLEETLNLYRSYFGLDEASLENIAKDFNVSVNEIKAHLRSLQLLTKNNDMSFKEKLLKYIEYISCVTGGPLASGLYFRKTYYWQSLFIDTVASDAKSLLNKEEFLSEKPGSCLSDLPEYWETGMEL
binding [6]: no binding
binding [7]: binds
binding [1]: no binding
binding [2]: no binding
binding [3]: no binding
binding [4]: no binding
